# From the supplement of paper PMC5355238
# Structures can show the parent of a compound that is named as a salt. Some of the results follow. Most values come without repeats; read them as rough.
# System: Reh
# Assay: S-phase gammaH2AX median, Z-score vs plate median (drug alone); higher = more S-phase DNA damage
# Details: MK1775 concentration 0 nM; 10 µM; 4 h
row,SMILES,S-phase gammaH2AX median (Z-score)
1,COc1cc(OC)c(C=C2C(=O)Nc3ccccc32)c(OC)c1,-0.0615
2,CN(NC(=O)CC(=O)NN(C)C(=S)c1ccccc1)C(=S)c1ccccc1 [Elesclomol],2.03
3,CCN(CC)CC#CCOC(=O)C(O)(c1ccccc1)C1CCCCC1 (centres undefined) [Oxybutynin Chloride],0.0544
4,O=C(NCCNCC(O)COc1ccc(O)cc1)N1CCOCC1 (centres undefined) [Xamoterol hemifumarate],0.04
5,N=C(N)c1ccccc1 [Benzamidine hydrochloride],0.0738
6,CCN(Cc1ccncc1)C(=O)C(CO)c1ccccc1 (centres undefined) [Tropicamide],0.0133
7,COc1ccc(C(=O)NCc2cccnc2)cc1C(=O)NCc1cccnc1 [Picotamide],0.175
8,O=Nc1c(-c2c(O)[nH]c3ccccc23)[nH]c2ccccc12 [Indirubin-3'-oxime],-0.28
9,COc1ccc2[nH]cc(CCNC(C)=O)c2c1 [Melatonin],-0.0568
10,CCCCC/C=C\C[C@@H](O)/C=C/c1cccc(C[C@@H](O)CCCCO)n1,-0.601
11,C=CC[C@@H]1/C=C(\C)C[C@H](C)C[C@H](OC)[C@H]2O[C@@](O)(C(=O)C(=O)N3CCCC[C@H]3C(=O)O[C@H](/C(C)=C/[C@@H]3CC[C@@H](O)[C@H](OC)C3)[C@H](C)[C@@H](O)CC1=O)[C@H](C)C[C@@H]2OC [FK-506 (Tacrolimus)],-0.0824
12,COc1nc(C)nc(Cl)c1NC1=NCCN1 [Moxonidine hydrochloride],0.0237
13,COc1cc2nc(N3CCN(C(=O)c4ccco4)CC3)nc(N)c2cc1OC [Prazosin hydrochloride],0.156
14,NCCS(=O)(=O)O [Taurine],0.147
15,N#CC(C#N)=C(N)/C(C#N)=C/c1ccc(O)cc1 [Tyrphostin AG 112],0.147
16,O=c1c(O)c(-c2cc(O)c(O)c(O)c2)oc2cc(O)cc(O)c12 [Myricetin],0.0639
17,Cc1cccc(/C=C/c2ccccc2)n1,-0.42
18,CCn1cc(C(=O)O)c(=O)c2ccc(C)nc21 [Nalidixic acid sodium],0.00946
19,C#CCN(C)Cc1ccccc1 [Pargyline hydrochloride],0.267
20,O=c1[nH]c2ccccc2c2ccccc12 [6(5H)-Phenanthridinone],0.464
21,CCN(CC)CCNC(=O)c1cc(S(C)(=O)=O)ccc1OC [Tiapride hydrochloride],0.501
22,O=C(CCCN1CC=C(n2c(=O)[nH]c3ccccc32)CC1)c1ccc(F)cc1 [Droperidol],-0.0724
23,"N=C(N)SCCc1cccc(CCSC(=N)N)c1 [1,3-PBIT dihydrobromide]",0.0828
24,O=c1cc(-c2ccc(O)cc2)oc2cc(O)cc(O)c12 [Apigenin],0.00777

# Two compounds drawn at random from the list so far, as already listed:
row,SMILES,S-phase gammaH2AX median (Z-score)
17,Cc1cccc(/C=C/c2ccccc2)n1,-0.42
24,O=c1cc(-c2ccc(O)cc2)oc2cc(O)cc(O)c12 [Apigenin],0.00777
